# PubChem BioAssay AID540275 (National Center for Advancing Translational Sciences (NCATS), 2011)
# The chains behind the UniProt entries cited, without tags or fusion partners.
# UniProt Q8NER1, whole entry, looked up: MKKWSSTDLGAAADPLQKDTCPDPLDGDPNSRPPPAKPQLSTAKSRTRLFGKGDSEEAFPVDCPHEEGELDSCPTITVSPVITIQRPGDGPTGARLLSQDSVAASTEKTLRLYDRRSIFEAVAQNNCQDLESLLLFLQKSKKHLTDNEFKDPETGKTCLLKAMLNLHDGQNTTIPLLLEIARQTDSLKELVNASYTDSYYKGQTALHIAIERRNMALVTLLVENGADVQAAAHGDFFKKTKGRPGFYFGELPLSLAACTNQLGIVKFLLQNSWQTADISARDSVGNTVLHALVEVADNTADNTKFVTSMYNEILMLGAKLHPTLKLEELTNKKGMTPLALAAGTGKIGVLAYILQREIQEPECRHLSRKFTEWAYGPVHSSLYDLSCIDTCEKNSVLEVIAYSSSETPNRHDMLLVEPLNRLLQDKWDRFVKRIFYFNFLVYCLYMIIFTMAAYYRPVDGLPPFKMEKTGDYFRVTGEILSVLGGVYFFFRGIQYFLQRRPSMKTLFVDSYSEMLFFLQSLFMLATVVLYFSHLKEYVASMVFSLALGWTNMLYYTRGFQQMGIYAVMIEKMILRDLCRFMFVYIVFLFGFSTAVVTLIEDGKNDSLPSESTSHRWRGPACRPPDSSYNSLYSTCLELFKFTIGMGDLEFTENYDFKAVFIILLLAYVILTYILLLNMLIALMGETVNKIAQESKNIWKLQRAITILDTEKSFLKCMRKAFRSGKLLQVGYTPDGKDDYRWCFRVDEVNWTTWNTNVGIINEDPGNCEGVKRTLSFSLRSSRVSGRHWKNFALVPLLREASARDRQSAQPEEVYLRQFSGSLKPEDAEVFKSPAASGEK
# In all, about 320,000 compounds went through this assay and about 620 (0.19%) were called active. The inconclusive results got no clear call from the source; some entries with a clear call stand among them for comparison. No stated cut-off is given here; in the data, active means activation above about 80%; inconclusive means between about 30% and that limit; inactive means weaker than that.
# Target: Transient receptor potential cation channel subfamily V member 1 (Homo sapiens) (UniProt Q8NER1)
# Test: HTS Assay for Compounds that Act as Agonists of the Vanilloid Receptor 1; further: 0% is about no effect
# Conditions: TRPV1-expressing cells, Fluo-8 calcium influx, agonist mode; at 8.33 µM, hits give high values
# Summary of the method: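 Fluo-8 calcium influx in TRPV1-expressing cells, kinetic read (ex 480/em 520 nm). Compound added and read 3 min for agonist activity, followed by capsaicin at EC20 final and 2 min further read for enhancement.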
row,SMILES,activation
1,COc1ccc(N2CCN(CCNC(=O)Nc3ccc(C)c(Cl)c3)CC2)cc1,inactive: 5.49%
2,O=C(CCNc1ccc(Cl)cc1)c1cccs1,inconclusive: 62.8%
3,CC1(C)CC2CC(C)(CN2S(=O)(=O)c2ccc(C(=O)Nc3cc(S(=O)(=O)N4CCOCC4)ccc3Cl)cc2)C1 (stereo not given),inconclusive: 41.7%
4,Nc1nonc1C(=O)N/N=C/c1ccncc1,inconclusive: 34.3%
5,COc1ccc2c(c1)[C@H]1[C@H](CO2)[C@H](c2ccccc2)[C@]2(C)C(=O)Nc3cc(F)c(F)cc3C(=O)N12,inconclusive: 37.4%
6,O=C(C1CCN(S(=O)(=O)c2cc(Cl)ccc2Cl)CC1)N1CCCC1,inconclusive: 36.6%
7,COC(=O)c1cccc(C(=O)N2CCCC(Nc3ccc(C)c(C)c3)C2)c1 (stereo not given),inconclusive: 78%
8,O=C1c2ccccc2NC2(CCCCC2)N1c1ccc(O)cc1,inactive: 3.13%
9,CCC1CCCCN1S(=O)(=O)c1ccc(C(=O)Nc2nnc(C3=COCCO3)o2)cc1 (stereo not given),inactive: 0.487%
10,Cc1cccc(N(C)S(=O)(=O)c2ccc(-c3cc(C)no3)s2)c1,inconclusive: 47.5%
11,CC(C)(C)c1ccc(OCCNCc2ccccc2)cc1,inconclusive: 30.8%
12,Cc1ccc(S(=O)(=O)N2CCOCC2)cc1NC(=O)CN1CCC(Cc2ccccc2)CC1,inconclusive: 45.2%
13,Nc1nn(-c2ccccc2)c(N)c1N=Nc1ccccc1,inconclusive: 50.5%
14,O=C(Nc1nccs1)c1ccc(-c2ccc(F)cc2)o1,inconclusive: 55.4%
15,CCOC(=O)N1CCN(c2nnc(-c3ccc(C)cc3)c3ccccc23)CC1,inconclusive: 49.2%
16,O=C(c1cccc(-c2nnc(-c3ccccc3)o2)c1)N1CCCCC1,inconclusive: 46.6%
17,CC1(c2ccccc2)NC(=O)N(CC(=O)NCCC2=CCCCC2)C1=O (stereo not given),inconclusive: 31.3%
18,Cc1nn(-c2nc3ccccc3[nH]2)c(=O)c2ccccc12,inactive: 8.1%
19,Cc1nc(Oc2ccc(Cl)cc2)c2oc3ccccc3c2n1,inconclusive: 41%
20,Cc1ccc(SCCC(=O)NCc2ccco2)cc1,inconclusive: 34.1%
21,CCC1CN(C(=O)Nc2cccc(C)c2)c2cc(C)ccc2O1 (stereo not given),inconclusive: 36.3%
22,COc1ccccc1NC(=O)CN1CCN(CC(=O)Nc2ccccc2Cl)CC1,inactive: -1.82%
23,COc1cccc(CNC(=O)COc2cccc3c2OC(C)(C)C3)c1,inconclusive: 46.3%

row,SMILES,activation
1,COc1ccc(C(=O)C2CCCN(Cc3ccc4nonc4c3)C2)c(C)c1 (stereo not given),inconclusive: 44.2%
2,COc1ccc(CNC(=O)CC23CC4CC(CC(C4)C2)C3)cc1OC,inconclusive: 63.1%
3,CCC/C(O)=C1\C(=O)CC(C)(C)CC1=Nc1ccc(OC)cc1OC,inconclusive: 36.3%
4,C=CCN(c1cccc(C(F)(F)F)c1)S(=O)(=O)c1cccc(C(=O)OCC(=O)NC(N)=O)c1,inconclusive: 42.8%
5,CC(=O)c1ccc(NC(=O)c2cccs2)cc1,inconclusive: 75.3%
6,Cc1cc(N2CCN(c3ccccc3)CC2)nc(-n2nc(C)cc2C)n1,inactive: 7.29%
7,Cc1nc(N2CCN(c3ccccn3)CC2)c2c(C)c(C(=O)Nc3ccc(Cl)cc3)sc2n1,inactive: 10.8%
8,Cc1ccc(CCC(=O)Nc2ccc(Br)cc2)o1,inconclusive: 50.2%
9,CCOC(=O)C1=C(N)OC2=C(C(=O)CC(C)(C)C2)C1c1ccc(C)s1 (stereo not given),inconclusive: 33.3%
10,CC1C/C(=C/c2ccccn2)C(=O)/C(=C/c2ccccn2)C1 (stereo not given),inactive: 13.2%
11,CCn1nc(C)cc1C(=O)N1CCCC(C(=O)c2ccc(Oc3ccccc3)cc2)C1 (stereo not given),inactive: 11.4%
12,COc1ccc(-c2[nH]ncc2CN2CCN(c3ccc(F)cc3)CC2)cc1,inactive: -2.2%
13,COCCNC(=O)c1ccc(S(=O)(=O)N2CCCc3ccccc32)cc1,inactive: 10.3%
14,COc1ccc(OC/C(O)=C(\C#N)c2nc3ccccc3[nH]2)cc1,inactive: 4.96%
15,O=C(NCc1ccccn1)c1ccc2c(c1)N(Cc1ccccc1)CCS2,inconclusive: 48.8%
16,COc1cccc(CNC(=O)c2cccc(Br)c2)c1,inconclusive: 49.1%
17,CCCc1cc(=O)oc2cc(C)cc(OCC(=O)N[C@@H](CSCc3ccccc3)C(=O)O)c12,inactive: 0.747%
18,CCn1c(SCC(=O)N2CCCc3ccccc32)nc2ccccc2c1=O,inconclusive: 30.1%
19,Cc1ccc(S(=O)(=O)N(C)CCCC(=O)Nc2ccncc2)cc1,inconclusive: 45.6%
20,NC(=O)c1ccc(OCC(F)(F)C(F)(F)C(F)(F)C(F)(F)C(F)(F)C(F)F)cc1,inactive: 24.4%
21,C/C(N)=C(/C#N)C(=O)CSc1nnc(-c2ccc3c(c2)OCO3)o1,inactive: 0.959%
22,O=C(NN1C(=O)C2C3C=CC(C3)C2C1=O)c1cccc(Cl)c1 (stereo not given),inactive: -1.38%
23,O=C(CSc1nnc2n(C3CCCC3)c(=O)c3ccccc3n12)N1CCCCCC1,inconclusive: 30.6%

# 3 entries from above, ordered by length of the SMILES, ascending.
row,SMILES,activation
23,COc1cccc(CNC(=O)COc2cccc3c2OC(C)(C)C3)c1,inconclusive: 46.3%
22,O=C(NN1C(=O)C2C3C=CC(C3)C2C1=O)c1cccc(Cl)c1 (stereo not given),inactive: -1.38%
1,COc1ccc(C(=O)C2CCCN(Cc3ccc4nonc4c3)C2)c(C)c1 (stereo not given),inconclusive: 44.2%

# Additional compounds

row,SMILES,activation
1,Cc1ccc(C)c(OCC(=O)N2CCc3ccccc3C2)c1,inconclusive: 35.9%
2,O=C(Nc1nc2c(s1)CCCC2)Oc1ccccc1,inactive: 1.32%
3,O=C(Nc1cccc(C(=O)Nc2cccc(Br)c2)c1)c1ccccc1,inactive: 14.6%
4,Cc1cc(C(=O)N/N=C\c2ccc(COc3ccc([N+](=O)[O-])cc3)o2)ccc1[N+](=O)[O-],inactive: -1.32%
5,Cc1ccc(NC2c3ncccc3C(=O)N2Cc2cccs2)cc1 (stereo not given),inconclusive: 59.3%
6,Cc1cc(-c2n[nH]c(=S)n2/N=C/c2ccc(C)s2)n[nH]1,inactive: -0.691%
7,O=C(Nc1ccc(Oc2ccc(NC(=O)c3ccco3)c(NC(=O)c3ccco3)c2)cc1)c1ccco1,inactive: 0.0479%
8,O=C(NCCc1c[nH]c2ccccc12)c1ccc(Cl)cc1,inconclusive: 35.3%
9,COc1ccc(C(=S)Nc2ccc(N(C)C)cc2)cc1,inconclusive: 39.1%
10,CC(Oc1ccc(F)cc1)C(=O)Nc1cc(C(F)(F)F)ccc1-n1cncn1 (stereo not given),inconclusive: 57.2%
11,COc1ccc(C(=O)C2CCCN(C3Cc4ccccc4C3)C2)c(OC)c1 (stereo not given),inconclusive: 58.7%
12,O=C(c1cccc(Br)c1)c1cn(-c2ccccc2)nc1C(=O)c1ccccc1,inconclusive: 55.5%
13,CCOc1ccc(Cc2c(Cl)nc(SC)nc2OC)cc1,inconclusive: 31.6%
14,Cc1ccc(NC(=O)C2=CCN(S(=O)(=O)c3ccc(F)cc3)CC2)cc1,inconclusive: 59.3%
15,O=C(NCc1ccco1)Nc1cccc([N+](=O)[O-])c1,inconclusive: 32.4%
16,Cc1ccc(-c2cc(C(=O)OCC(=O)N(C)C3CCS(=O)(=O)C3)c3ccccc3n2)c(C)c1 (stereo not given),inconclusive: 60.3%
17,CCOc1ccc(C(=O)NCc2cccs2)cc1,inactive: 1.18%
18,CCCc1cc(-c2nc(-c3ccc(C)cc3)cs2)ccn1,inconclusive: 32.3%
19,Cc1ccc(N2CC(C(=O)Nc3nccs3)CC2=O)cc1Cl (stereo not given),inconclusive: 37.9%
20,COc1ccc(NC(=O)/C=C/c2ccc(S(=O)(=O)N3CCOCC3)cc2)cc1,inconclusive: 33.7%
21,CC(C)Cc1cc(C(=O)N2CCCC(C(=O)c3cc(F)ccc3F)C2)no1 (stereo not given),inconclusive: 50.8%
22,O=C(Nc1cccc(F)c1)c1cccc(S(=O)(=O)N2CCOCC2)c1,inconclusive: 50.7%
23,C/C(=N\Nc1cccc2cccnc12)c1ccccn1,inconclusive: 32.6%

row,SMILES,activation
1,O=C(N/N=C/c1ccc2c(c1)OCO2)c1cccs1,inconclusive: 39.5%
2,C/C(CCc1oc2ccc(Cl)cc2c1-c1ccc(C)o1)=N\O,inconclusive: 32.2%
3,O=C(CSc1nc2ccccc2n1S(=O)(=O)c1cccc([N+](=O)[O-])c1)NCCc1ccccc1,inconclusive: 53.1%
4,CCOC(=O)c1nc(Nc2ccc(C)cc2)c2ccccc2n1,inconclusive: 56.1%
5,O=C(Nc1ccc2[nH]c(=O)[nH]c2c1)c1cc(F)c(F)cc1Cl,inconclusive: 57.8%
6,O=C(N/N=C/c1ccc(Cl)cc1)c1ccc2c(c1)OCO2,inconclusive: 67.1%
7,Cc1ccc(NC(=O)c2cnccn2)cc1C,inconclusive: 36.6%
8,CCCNC(=O)c1csc2c1CCCCC2,inactive: 26.8%
9,O=c1c2ccccc2nc(/C=C/c2ccc(O)cc2)n1CCc1ccccc1,inconclusive: 34.7%
10,Cc1cccc(/C=N/Nc2cc(N3CCOCC3)nc(N3CCOCC3)n2)c1,inconclusive: 45.7%
11,COCC(=O)N(Cc1nc2sc(C)c(C)c2c(=O)[nH]1)C1CCCCC1,inactive: 6.02%
12,CC(C)Oc1ccc(/C(O)=C2/C(=O)C(=O)N(CCN3CCOCC3)C2c2ccccc2)cc1 (stereo not given),inactive: 1.49%
13,O=C(COC(=O)CC(c1ccccc1)c1ccccc1)NCc1ccc(Cl)cc1,inconclusive: 58.6%
14,CCN(CC)S(=O)(=O)c1cc(C(=O)Nc2ccccc2C(=O)O)ccc1OC,inactive: 1.12%
15,COCCOc1ccc(C(F)(F)F)cc1Nc1nc2ccccc2o1,inconclusive: 36.7%
16,CCCCN(C(=O)CCCc1nc2ccccc2s1)c1c(N)n(CC(C)C)c(=O)[nH]c1=O,inactive: 0.318%
17,Cc1ccc(C(=O)N/N=C\c2cccnc2)s1,inconclusive: 37.8%
18,c1ccc(-c2oc3ncnc(NCCN4CCOCC4)c3c2-c2ccccc2)cc1,inconclusive: 30.8%
19,Cc1cc(OCCn2ccnc2)cc(C(C)C)c1,inactive: 0.635%
20,O=C(Nc1ccc(Cl)cc1F)c1ccc(-n2cncn2)cc1,inconclusive: 30.8%
21,O=C(CCCOc1ccc(Cl)cc1Cl)NCCCO,inconclusive: 32.6%

# Two entries from above in a different format.
row	SMILES	activation
5	COc1ccc2c(c1)[C@H]1[C@H](CO2)[C@H](c2ccccc2)[C@]2(C)C(=O)Nc3cc(F)c(F)cc3C(=O)N12	inconclusive: 37.4%
5	Cc1ccc(NC2c3ncccc3C(=O)N2Cc2cccs2)cc1 (stereo not given)	inconclusive: 59.3%
